In publication PMC10163288:
The list shows a part of the results.

B1: il10ra_site1_sap_18_mot_HHH_b1_06788_af2_000000238_0001_19_36_H_._HHH_b1_07121_0001_0000300019_0000002_0_0001 (protein)
chain: SSSSDEEELRELVEELVKELGLSEEAKRMLEISLERLLEMGQDEREIEEMLRFQARALKASSSSS
B2: il10ra_site1_sap_22_mot_HHH_b1_06789_af2_000000041_0001_1_20_H_._HHH_b2_02160_0001_0000200007_0000001_0_0001 (protein)
chain: SSSDERFEFIKKVIEEIIELLREGDKERAREVLERAREEAEELGNWVMRQVLEHLERVVERSSSS
B3: il10ra_site1_sap_28_mot_HHH_b1_01011_000000096_0001_1_19_H_._HHH_b2_03412_0002_0000100009_0000001_0_0001 (protein)
chain: SSSSDMEEELIRAVIRLLRELNDPEAVRRAEELLEQFEEEGDPEYFREVAQLLWEAARRFDSSSS
B4: il10ra_site1_sap_25_mot_HHH_b1_01879_000000050_0001_1_18_H_._HHH_b1_08444_0001_0000100004_0000001_0_0001 (protein)
chain: SSSSSTQELYELSRKAMELLRNGNPEEAEKLLEEALELAEEEGNWAAIVALRYILRAIRRSSSSS
B5: il10ra_site1_sap_26_mot_8756ee2cf497b5429c717dfc0c0bcfd6_0001_000000186_0001_1_13_H_._HHH_b2_06720_0001_0000100005_0000001_0_0001 (protein)
chain: SSSSDEEEIEELIKRIEELIEEGDQEEALRLLHELVELVAELNDEEALERIQELIQLIFQSSSSS
B6: il10ra_site1_sap_17_mot_HHH_b1_04558_af2_000000002_0001_38_52_H_._HHH_b2_08230_0001_0000100014_0000001_0_0001 (protein)
chain: SSSSSDEEYEEEVEELLEEAKRIEDREEVMRLLLRAIRLAYRAKDAELLRRIWEVLKELSSSSSS
B7: il10ra_site1_normal_mot_HHH_b2_06857_af2_000000179_0001_42_54_H_._HHH_b1_05676_af2_0001_0000100011_0000001_0 (protein)
chain: SSSSDETEEVVELLRRAAELHSDGDHEEARRLLEEAQELAEELGNELLRYQIEFAERSLDSSSSS
B8: il10ra_site1_normal_mot_8756ee2cf497b5429c717dfc0c0bcfd6_0001_000000186_0001_1_13_H_._HHH_b2_00624_0001_0000100003_0000003_0_af2pred_0001 (protein)
chain: SSSSSEEAEELFRLLREAAELHHEGNPEEARELLEEAEELAREAGDLNAEAVIRFLLELAGSSSS
B9: il10ra_site1_sap_18_mot_HHH_b2_01999_000000006_0001_1_18_H_._HHH_b2_08069_af2_0001_0000200010_0000001_0_0001 (protein)
chain: SSSSNAEYLIRQAAKAARLLLEAGDPEEAERALRIAERSAEQENNEELKEEIRRLEEEVRSSSSS
B10: il10ra_site1_sap_13_mot_HHH_b1_05329_000000008_0001_43_56_H_._HHH_b1_01872_af2_0001_0000100004_0000002_0_0001 (protein)
chain: SSSSDEKEELFRAIERLIRQALEWGDEESVEFMLLSLKMLAEELNDPELREITEELEELLNSSSS
B11: il10ra_site1_normal_mot_HHH_b1_06789_af2_000000041_0001_1_20_H_._HHH_b1_00090_af2_0001_0000500014_0000001_0_af2pred_dldesign_0_af2pred (protein)
chain: SSSSSGGRLMTEQALRAARILLEQGYPEEARRALDIARKLAEQLNDPELLARVRALEAELESSSS
B12: il10ra_site1_normal_mot_HHH_b1_00999_000000080_0001_41_55_H_._HHH_b1_06668_af2_0001_0000600034_0000001_0 (protein)
chain: SSSSSSDEREEAEELLEEAKEIEDPEEVSRIIQEALQLAYKANDKELLRELWEFVKKRGSSSSSS
B13: il10ra_site1_normal_mot_HHH_b1_05860_000000142_0001_1_19_H_._HHH_b1_06440_af2_0001_0000300014_0000002_0_af2pred_0001 (protein)
chain: SSSSDVEEVLRLLRRLAELLRENDQEEAKELIEEIEKLIEELNNPLLKFNLERLKRSLKLSSSSS
B14: il10ra_site1_normal_mot_fda5df8c19bda1ddfcc41857df859eb0_0001_1_000000120_0001_35_49_H_._HHH_b2_06918_0001_0000600067_0000001_0_af2pred_dldesign_0_af2pred (protein)
chain: SSSSSAALAARTTALAIEIANLYRAGRPEEARALADAGIAELTAAGDADGVARLQALLALLSSSS
B15: il10ra_site1_sap_15_mot_HHH_b2_00988_000000064_0001_1_19_H_._HHH_b2_07593_0001_0000100004_0000002_0_0001 (protein)
chain: SSSSSEEVYELSKEALELLAEGNPEEAEEVLEQARRLAEEAGDRVVLHNVRFALEDIERENSSSS
B16: il10ra_site1_normal_mot_HHH_b2_07442_000000239_0001_40_54_H_._HHH_b1_06779_0001_0000200029_0000001_0 (protein)
chain: SSSSDEAEEIYRLSREVAELDHEGDREEAERLLEEAIEYAEEVGNLVLLANLEFLRRLLESSSSS
B17: il10ra_site1_normal_mot_HHH_b2_00230_000000227_0001_1_19_H_._HHH_b1_00018_0001_0000200033_0000001_0 (protein)
chain: SSSSDEAYEIVREVIEELKELYEKNDPEALEELVEEARKELEEAGNEHAVISLEHFIRLILSSSS
B18: il10ra_site1_normal_mot_3af0db62db2b275566dae2e03bf881fa_0001_000000003_0001_37_50_H_._HHH_b1_08547_af2_0001_0000500007_0000001_0_af2pred_0001 (protein)
chain: SSSSSDLEREARALLYFAELAEEQGDPRAARIHLEFAEEIAEETGDEELLKEIRRLLEELSSSSS
B19: il10ra_site1_normal_mot_HHH_b1_03333_000000091_0001_1_17_H_._HHH_b2_04212_0001_0000200013_0000002_0 (protein)
chain: SSSSTEELYELVKKAIERAIELFRNGDPEQAEEVLEEILEEVEKRGNVNILISLEHLLRVLSSSS
B20: il10ra_site1_sap_17_mot_HHH_b1_06256_000000091_0001_42_58_H_._ems_3hM_3301_0001_0000200007_0000001_0_0001 (protein)
chain: SSSSSTEEEREEVEELLEEAKEITDPEERSKVLLEATRIAIQAQDPELLRLVWRVVKELGSSSSS
B21: il10ra_site1_normal_mot_HHH_b2_08186_000000021_0001_43_56_H_._HHH_b2_02616_0001_0000100008_0000001_0 (protein)
chain: SSSSDKEERLEELLEELERLLEEGDEQEFRRVAIEILRLAFELGDDEALKIVWELLKALASSSSS
B22: il10ra_site1_sap_20_mot_HHH_b2_00093_af2_000000025_0001_40_54_H_._HHH_b2_05679_0001_0000100006_0000001_0_0001_af2pred_0001 (protein)
chain: SSSSSIHERDVELALLAARLLAERGDPEAVREALELARRQAESTNNEELEELVEEVERELSSSSS
B23: il10ra_site1_sap_19_mot_HHH_b2_00479_000000091_0001_1_12_H_._HHH_b2_07972_0001_0000100015_0000002_0_0001 (protein)
chain: SSSSDEEQQEVLELLREAFELALRGNPEEAEKVLRRALELAEEIGDPRAFEMIENLLKALKSSSS
B24: il10ra_site1_normal_mot_HHH_b1_01563_af2_000000118_0001_40_54_H_._ems_3hM_198_af2_0001_0000200006_0000001_0 (protein)
chain: SSDEKEEVEELYEELKEAAEKRDEELISEVALKASRLALELGDQEILHQIWELFKKAIELARSSS

biological target: il10ra, Q13651; experiment: yeast display titration

Apparent Kd, inactive:
B1 no binding seen
B2 > 40.5 nM
B3 no binding seen
B4 no binding seen
B5 no binding seen
B6 no binding seen
B7 no binding seen
B8 no binding seen
B9 no binding seen
B10 no binding seen
B11 no binding seen
B12 no binding seen
B13 no binding seen
B14 no binding seen
B15 no binding seen
B16 no binding seen
B17 no binding seen
B18 no binding seen
B19 no binding seen
B20 no binding seen
B21 no binding seen
B22 no binding seen
B23 no binding seen
B24 no binding seen

2 records picked at random from those above, as already listed:
Apparent Kd, inactive:
B20 no binding seen
B1 no binding seen
